Measurements from article doi:10.1101/2022.03.21.485049.
Results are given in words; binding and its absence hold for the method and conditions named. Binding seen in cells or lysates may run through a third protein. Some binding calls cover weakened binding; strength is not graded here.

The chains behind the UniProt entries cited, without tags or fusion partners. Residues count along the entry.
UniProt Q9NZQ7, residues 19-290: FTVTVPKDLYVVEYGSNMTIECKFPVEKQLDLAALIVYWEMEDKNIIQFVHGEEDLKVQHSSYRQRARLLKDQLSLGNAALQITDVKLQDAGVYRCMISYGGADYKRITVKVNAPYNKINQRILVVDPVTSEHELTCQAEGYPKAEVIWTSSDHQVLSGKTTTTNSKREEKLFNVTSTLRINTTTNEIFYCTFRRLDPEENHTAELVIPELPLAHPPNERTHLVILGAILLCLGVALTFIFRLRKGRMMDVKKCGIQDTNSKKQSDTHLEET

Experiments:
[1] = target: T1, CMTM6 (human (endogenous in A375 and 2686 melanoma cells)) (UniProt Q9NX76); assay: co-IP
T1 sequence: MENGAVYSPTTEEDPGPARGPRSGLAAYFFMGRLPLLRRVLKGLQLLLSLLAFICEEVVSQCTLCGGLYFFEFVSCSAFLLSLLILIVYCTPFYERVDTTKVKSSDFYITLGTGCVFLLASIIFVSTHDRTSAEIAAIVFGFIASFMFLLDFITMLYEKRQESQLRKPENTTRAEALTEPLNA

[2] = target: PD-L1 (human (endogenous in 2686 melanoma cells)) (UniProt Q9NZQ7); assay: co-IP

Question: With PD-L1 (from UniProt Q9NZQ7 19-290) as the molecule, how does the binding [1] read?
Answer: The binding was “binds”.

B1: CMTM6 (protein, UniProt Q9NX76 1-183)
chain: MENGAVYSPTTEEDPGPARGPRSGLAAYFFMGRLPLLRRVLKGLQLLLSLLAFICEEVVSQCTLCGGLYFFEFVSCSAFLLSLLILIVYCTPFYERVDTTKVKSSDFYITLGTGCVFLLASIIFVSTHDRTSAEIAAIVFGFIASFMFLLDFITMLYEKRQESQLRKPENTTRAEALTEPLNA
Question: For B1, which binding [2] is on record?
Answer: The binding was “binds”.
